This passage reports binding results from PMC11472067.

Amino acid sequences for entries named in this document (tags omitted). A change or cut given only in a name is not applied to a line headed by its entry.
UniProt P83916: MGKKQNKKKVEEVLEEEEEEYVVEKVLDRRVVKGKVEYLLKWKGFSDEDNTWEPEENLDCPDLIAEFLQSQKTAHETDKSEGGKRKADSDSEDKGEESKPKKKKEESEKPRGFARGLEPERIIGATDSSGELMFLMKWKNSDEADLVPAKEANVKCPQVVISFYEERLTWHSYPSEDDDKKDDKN
UniProt Q13185: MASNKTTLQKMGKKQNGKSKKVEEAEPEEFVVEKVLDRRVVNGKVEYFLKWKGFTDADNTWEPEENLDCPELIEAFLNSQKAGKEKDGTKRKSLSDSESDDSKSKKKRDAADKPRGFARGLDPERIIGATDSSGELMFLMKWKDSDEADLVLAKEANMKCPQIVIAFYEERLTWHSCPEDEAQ
UniProt P45973: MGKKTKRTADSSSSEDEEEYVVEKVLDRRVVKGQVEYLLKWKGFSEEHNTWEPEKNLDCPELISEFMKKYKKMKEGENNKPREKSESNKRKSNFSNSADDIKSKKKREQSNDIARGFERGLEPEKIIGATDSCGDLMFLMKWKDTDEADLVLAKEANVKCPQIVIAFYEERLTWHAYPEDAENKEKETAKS

Results are given in words; binding and its absence hold for the method and conditions named. Some results given as binding are weak or reduced against the parent protein; the word gives no strength. For part of these data: Sequences can lack the tags named with a protein.

Common to all, as to assay: cross raster image correlation spectroscopy (cross RICS, fluorescence fluctuation spectroscopy); two-channel FFS in live HeLa nuclei stably expressing eGFP-HP1α_(I165E) (endogenous HP1α knocked down), transiently transfected with an mCherry or RFP657 tagged partner; ratio of cross RICS amplitude to the limiting channel's RICS amplitude gives the fraction of heterocomplex

In experiment [1] the target is HP1β-mCh (UniProt P83916).
The target of experiment [2] is T1, histone-lysine N-methyltransferase (SUV39H1) tagged to mCherry (SUV39H1-mCh) (UniProt O43463).
T1 sequence: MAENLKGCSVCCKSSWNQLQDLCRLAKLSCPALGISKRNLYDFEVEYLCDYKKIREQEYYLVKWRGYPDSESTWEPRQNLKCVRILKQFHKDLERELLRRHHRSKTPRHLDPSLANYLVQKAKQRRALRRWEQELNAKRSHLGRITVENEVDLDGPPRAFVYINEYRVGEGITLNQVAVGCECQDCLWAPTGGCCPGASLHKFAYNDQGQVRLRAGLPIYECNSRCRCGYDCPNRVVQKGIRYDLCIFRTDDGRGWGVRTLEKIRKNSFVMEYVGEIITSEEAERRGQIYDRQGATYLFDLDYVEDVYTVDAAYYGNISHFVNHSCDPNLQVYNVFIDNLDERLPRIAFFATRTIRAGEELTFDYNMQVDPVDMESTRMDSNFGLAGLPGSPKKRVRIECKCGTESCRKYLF

Experiment [3] has as its target HP1γ-mCh (UniProt Q13185).

With “eGFP tagged to HP1α dimer mutant I165E (eGFP-HP1α_(I165E)) (from UniProt P45973 1-191)”, the binding result is reported as “no binding” in experiment [1], “binds” in experiment [2] and “no binding” in experiment [3].
